# Results taken from PubChem BioAssay AID485314 (National Center for Advancing Translational Sciences (NCATS), 2010).
# About 4,500 (1.3%) of roughly 340,000 compounds were called active. Inconclusive results, whose numbers are uncertain, are shown with a selection of clear calls. Calls come from the whole dose curve; as a rule, active = well fitted inhibition curve with a large enough effect; inconclusive = small, poorly fitted or top-dose-only effect, or another doubt; inactive = no such curve, though single readings can be large or run the other way. Potencies of inconclusive entries are doubtful fits and often do not repeat.
# Molecular target: DNA polymerase beta (Homo sapiens) (UniProt P06746)
# Assay: qHTS Assay for Inhibitors of DNA Polymerase Beta
# Conditions: Pol beta primer extension/strand displacement, fluorescence kinetic; activity change, negative = inhibition: at 114 µM (top of the series)
# How it was run: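 Human Pol beta at 10 nM; strand-displacement substrate 50 nM final. Compound exposure 15 min at room temperature before start, reaction 10 min at room temperature.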
# % is set by controls: 0 for no effect and ±100 for the full control effect; potency is the fitted concentration of half-maximal effect.
SMILES,Potency,"activity change, negative = inhibition"
O=C(Cn1cc(C(=O)c2ccco2)c2ccccc21)Nc1ccccc1Cl,"inconclusive: 44.7 µM [inhibitor, partial curve]",
O=C1C2C3C=CC(C3)C2C(=O)N1c1ncn[nH]1 (stereo unspecified),active: 39.8 µM,
CCN(CC)c1ccc(NC(=O)Cn2nnc(-c3cccc(OC)c3OC)n2)c(C)c1,"inconclusive: 89.1 µM [inhibitor, partial curve]",
Cc1cc2sc3ccccc3c(=O)c2c(C)c1O,active: 50.1 µM,
Cc1cc(NC(=O)NCc2ccc3c(c2)CCN3C(=O)c2ccccc2)ccc1Br,"inconclusive: 89.1 µM [inhibitor, single point]",
CCc1ccc(S(=O)(=O)Nc2cccc(-c3ccc(N4CCC(C)CC4)nn3)c2)s1,,inactive: -3.12%
Cc1cc(C)c(Cn2c3ccccc3c3cnn(CC(=O)NCc4ccccn4)c(=O)c32)c(C)c1,"inconclusive: 35.5 µM [inhibitor, single point]",
Cc1csc2ncnc(NNC(=O)c3ccc(Cl)cc3)c12,"inconclusive: 100 µM [inhibitor, single point]",
CCCCCC(=O)NN1C(=S)N(c2ccc(OC)cc2)C(=O)C1CC(=O)Nc1ccccc1 (stereo unspecified),"inconclusive: 14.1 µM [inhibitor, full curve, poor fit]",
COC(=O)c1ccc(=O)c2nc3/c(=C/O)c(O)cc(=O)c3[nH]c12,,inconclusive: -92.6% [inhibitor]
CC(=NC1CC1)C1=C(O)c2ccccc2C1=O,"inconclusive: 22.4 µM [inhibitor, full curve]",
Cc1ccc(C(=O)Nc2ccc(C(=O)N/N=C/c3ccncc3)cc2)cc1,"inconclusive: 15.8 µM [inhibitor, full curve]",
Cc1cccc(Cn2cc3c(=O)n(Cc4cccc(F)c4)nc-3c3ccccc32)c1,"inconclusive: 15.8 µM [inhibitor, single point]",
Cc1cc(C)c(NC(=O)CN2C(=O)c3cccnc3Oc3ccc(C)cc32)c(C)c1,"inconclusive: 89.1 µM [inhibitor, single point]",
COc1ccc(NC(=O)C(c2ccccc2)c2ccccc2)cn1,"inconclusive: 0.631 µM [inhibitor, single point]",
O=C(c1cscn1)N1CCCC(N2CCN(c3ccc(F)cc3)CC2)C1 (stereo unspecified),"inconclusive: 0.141 µM [inhibitor, full curve, poor fit]",
O=[N+]([O-])c1cccc(NC(=S)Nc2nc(-c3ccccc3Cl)cs2)c1,,inactive: -10.7%
O=C(CSc1ccc2nnc(-c3ccccc3)n2n1)NCc1ccco1,,inactive: -18%
COc1ccc(C2=CSC(/N=C/c3ccc(F)cc3)=NN2)cc1,"inconclusive: 25.1 µM [inhibitor, partial curve]",
CS(=O)(=O)NCCNc1ncc(C(F)(F)F)cc1Cl,"inconclusive: 79.4 µM [inhibitor, single point]",
N#Cc1c(C(F)(F)F)cc(-c2ccc(Cl)cc2)nc1SCC(=O)O,"inconclusive: 79.4 µM [inhibitor, single point]",
CCC1CCCCN1C(=O)c1ccc(OC)c(OC2CCN(C(C)C)CC2)c1 (stereo unspecified),"inconclusive: 0.158 µM [inhibitor, full curve, poor fit]",

SMILES,Potency,"activity change, negative = inhibition"
Cc1ccc(S(=O)(=O)N(CC(=O)N(C(C)C)C(C)C)C(=O)N2CCN(C)CC2)cc1,,inconclusive: -31.8% [inhibitor]
COc1cccc(/C=C(\C#N)c2nc3ccc(C)cc3[nH]2)c1OCC(=O)O,,inactive: -3.28%
CC(C)c1cnc2c(c1SCc1cccc(F)c1)c(=O)n(C)c(=O)n2C,,inactive: -23%
O=C(COC(=O)c1cccc(S(=O)(=O)N2CCOCC2)c1)Nc1ccc2c(c1)OCO2,"inconclusive: 1.78 µM [inhibitor, full curve, poor fit]",
CC(=O)c1ccc(NC(=O)c2nc(-c3ccccc3)n(-c3ccc(Cl)cc3)n2)cc1,"inconclusive: 8.91 µM [inhibitor, partial curve]",
Cc1cccc(CNC(=O)c2oc3c(c2C)-c2nn(Cc4cccc(Cl)c4)cc2CC3)c1,"inconclusive: 35.5 µM [inhibitor, single point]",
COC(=O)c1ccc2c(c1)N(CC(=O)Nc1cccc(Cl)c1C)C(=O)c1ccccc1S2,"inconclusive: 89.1 µM [inhibitor, single point]",
COc1ccc(NS(=O)(=O)c2cc3c(cc2C)NC(=O)CO3)c(OC)c1,"inconclusive: 50.1 µM [inhibitor, partial curve]",
CC1=C(C(=O)OCc2ccc([N+](=O)[O-])cc2)N2C(=O)C(NC(=O)Cc3ccccc3)C2SC1 (stereo unspecified),,inactive: -16.1%
Cc1cccc(Nc2nn3c(=O)c4ccccc4nc3s2)c1,active: 10 µM,
Cc1ccc(-c2noc(-c3ccc(NCc4ccco4)c([N+](=O)[O-])c3)n2)cc1,,inactive: -23.4%
COc1cc(NC(=O)CC(c2ccc(C)cc2)N2Cc3ccccc3C2=O)cc(OC)c1 (stereo unspecified),"inconclusive: 39.8 µM [inhibitor, partial curve]",
CC1=C(c2ccc(F)cc2)S(=O)(=O)NC1=NCc1ccccc1F,"inconclusive: 100 µM [inhibitor, single point]",
O=C(CSc1nc2ccccc2o1)N/N=C/c1ccccc1,,inactive: 19.2%
Cc1ccc(-c2cc(-c3ccc4c(c3)OCO4)c(C#N)c(N)n2)o1,"inconclusive: 89.1 µM [inhibitor, single point]",
Cc1ccc(S(=O)(=O)NC(=O)c2ccccc2F)cc1,"inconclusive: 3.55 µM [inhibitor, single point]",
COc1ccc(-n2nnc(-c3nc(-c4cccs4)no3)c2N)cc1OC,"inconclusive: 0.282 µM [inhibitor, full curve, poor fit]",
Cc1cc2c(c(=O)o1)C1(C(=O)N(CC(=O)O)c3ccccc31)C(C#N)=C(N)O2 (stereo unspecified),"inconclusive: 14.1 µM [inhibitor, full curve, poor fit]",
COc1ccc(C2C(C(=O)c3ccco3)=C(O)C(=O)N2c2nnc(C)s2)cc1 (stereo unspecified),"inconclusive: 0.1 µM [inhibitor, full curve, poor fit]",
Cc1ccccc1NS(=O)(=O)c1ccc2[nH]cc(C(=O)NC(C)c3ccccc3)c(=O)c2c1 (stereo unspecified),active: 39.8 µM,
Nc1ccc2nc3c(=O)n(CCc4ccccc4)c(=O)[nH]c3nc2c1,,inconclusive: -52.5% [inhibitor]
O=C1c2ccccc2-c2onc3ccc(NCCCn4ccnc4)c1c23,active: 25.1 µM,

# An excerpt from the list above, as a working copy:
SMILES,Potency,"activity change, negative = inhibition"
CC1=C(c2ccc(F)cc2)S(=O)(=O)NC1=NCc1ccccc1F,"inconclusive: 100 µM [inhibitor, single point]",
O=C(CSc1nc2ccccc2o1)N/N=C/c1ccccc1,,inactive: 19.2%

# Additional records:

SMILES,Potency,"activity change, negative = inhibition"
Cc1ccc(/C=N/NC(=O)Cc2ccc(O)cc2)s1,"inconclusive: 14.1 µM [inhibitor, full curve]",
NC(=O)Cc1nc2scc(-c3ccccc3)c2c(=O)[nH]1,"inconclusive: 2.82 µM [inhibitor, partial curve, poor fit]",
Oc1ccc(Br)cc1C=Nc1ccc2c3c(cccc13)CC2,,inactive: -0.0523%
Cc1coc2c(O)cc3c(c12)OC1(N2CCCCC2)C(=O)NCCCC31 (stereo unspecified),active: 50.1 µM,
CC(C)C(C(=O)NCc1ccco1)N(CC1CCCO1)C(=O)CNS(=O)(=O)c1ccccc1 (stereo unspecified),"inconclusive: 3.55 µM [inhibitor, single point]",
O=C(O)CCn1cc(/C=C\C(=O)c2ccc(Cl)cc2)c(-c2cccc(Br)c2)n1,"inconclusive: 22.4 µM [inhibitor, partial curve]",
O=C(Cc1ccc(S(=O)(=O)N2CCCC2)s1)Nc1nc2c(s1)CCCC2,"inconclusive: 20 µM [inhibitor, full curve]",
NC(=O)[C@@H]1CCCNc2c(F)cc([N+](=O)[O-])cc2C(=O)N[C@@H](CCC(=O)O)C(=O)N[C@@H](CO)C(=O)N1,,inactive: 11.3%
O=C1C(=O)N(C2CCN(C(=O)c3ccc(Cl)cc3)CC2)CCN1Cc1ccc(F)cc1,,inactive: 1.33%
Cc1ccc2nc(NCCNC(=O)c3ccccc3)c(C#N)cc2c1,"inconclusive: 0.562 µM [inhibitor, full curve, poor fit]",
COc1ccc(-c2ccc(SCC(=O)N3CCCC3)nn2)cc1OC,"inconclusive: 39.8 µM [inhibitor, single point]",
COc1cc(C)ccc1OCCSc1nc(-c2cccc(C)c2)nc2cc(=O)[nH]n12,"inconclusive: 31.6 µM [inhibitor, full curve]",
Cc1nc2sc3c(O)cc(=O)[nH]c3c2c(C)c1C,,inactive: -8.44%
COC(=O)c1sc2ncccc2c1OCc1c(Cl)cccc1Cl,"inconclusive: 22.4 µM [inhibitor, single point]",
O=C(COc1ccc2ccccc2c1)Nc1cccc(C(=O)Nc2ccccc2C(=O)O)c1,,inactive: 10.4%
CCOC(=O)NC(=O)/C(N=Nc1cccc(C(F)(F)F)c1)=C(\C)O,"inconclusive: 0.112 µM [inhibitor, full curve, poor fit]",
Cc1cc2cc(C#N)c(N3CCOCC3)nc2cc1Cl,"inconclusive: 6.31 µM [inhibitor, single point]",
COc1cc(C2c3c(oc4ccc(F)cc4c3=O)C(=O)N2c2nc(C)c(C)s2)cc(OC)c1OC (stereo unspecified),"inconclusive: 3.98 µM [inhibitor, single point]",
Cc1ccccc1NC(=O)c1c(C)oc2ccc(O)c(CN3CCCC3)c12,,inactive: 1.03%
Cc1nn2c(C)c(C(=O)N3CCN(c4ccccc4)CC3)cnc2c1-c1ccccc1,"inconclusive: 89.1 µM [inhibitor, single point]",
CCOc1cc(-c2noc(CCC(=O)NCCc3ccccc3)n2)ccc1OC,"inconclusive: 8.91 µM [inhibitor, partial curve]",
Cc1ccc(C(c2nnnn2C(C)(C)C)N(Cc2ccco2)Cc2cccs2)cc1 (stereo unspecified),"inconclusive: 89.1 µM [inhibitor, single point]",

# Retrieved one by one from above (three):
SMILES,Potency,"activity change, negative = inhibition"
Cc1ccc2nc(NCCNC(=O)c3ccccc3)c(C#N)cc2c1,"inconclusive: 0.562 µM [inhibitor, full curve, poor fit]",
COc1cc(NC(=O)CC(c2ccc(C)cc2)N2Cc3ccccc3C2=O)cc(OC)c1 (stereo unspecified),"inconclusive: 39.8 µM [inhibitor, partial curve]",
CCCCCC(=O)NN1C(=S)N(c2ccc(OC)cc2)C(=O)C1CC(=O)Nc1ccccc1 (stereo unspecified),"inconclusive: 14.1 µM [inhibitor, full curve, poor fit]",
